Measurements reported in publication PMC7688313.
Results are given in words; binding and its absence hold for the method and conditions named. In cells and extracts the contact can be indirect. Some binding calls cover weakened binding; strength is not graded here. Sequences can lack the tags named with a protein.

The chains behind the UniProt entries cited, without tags or fusion partners.
UniProt Q9EQW7: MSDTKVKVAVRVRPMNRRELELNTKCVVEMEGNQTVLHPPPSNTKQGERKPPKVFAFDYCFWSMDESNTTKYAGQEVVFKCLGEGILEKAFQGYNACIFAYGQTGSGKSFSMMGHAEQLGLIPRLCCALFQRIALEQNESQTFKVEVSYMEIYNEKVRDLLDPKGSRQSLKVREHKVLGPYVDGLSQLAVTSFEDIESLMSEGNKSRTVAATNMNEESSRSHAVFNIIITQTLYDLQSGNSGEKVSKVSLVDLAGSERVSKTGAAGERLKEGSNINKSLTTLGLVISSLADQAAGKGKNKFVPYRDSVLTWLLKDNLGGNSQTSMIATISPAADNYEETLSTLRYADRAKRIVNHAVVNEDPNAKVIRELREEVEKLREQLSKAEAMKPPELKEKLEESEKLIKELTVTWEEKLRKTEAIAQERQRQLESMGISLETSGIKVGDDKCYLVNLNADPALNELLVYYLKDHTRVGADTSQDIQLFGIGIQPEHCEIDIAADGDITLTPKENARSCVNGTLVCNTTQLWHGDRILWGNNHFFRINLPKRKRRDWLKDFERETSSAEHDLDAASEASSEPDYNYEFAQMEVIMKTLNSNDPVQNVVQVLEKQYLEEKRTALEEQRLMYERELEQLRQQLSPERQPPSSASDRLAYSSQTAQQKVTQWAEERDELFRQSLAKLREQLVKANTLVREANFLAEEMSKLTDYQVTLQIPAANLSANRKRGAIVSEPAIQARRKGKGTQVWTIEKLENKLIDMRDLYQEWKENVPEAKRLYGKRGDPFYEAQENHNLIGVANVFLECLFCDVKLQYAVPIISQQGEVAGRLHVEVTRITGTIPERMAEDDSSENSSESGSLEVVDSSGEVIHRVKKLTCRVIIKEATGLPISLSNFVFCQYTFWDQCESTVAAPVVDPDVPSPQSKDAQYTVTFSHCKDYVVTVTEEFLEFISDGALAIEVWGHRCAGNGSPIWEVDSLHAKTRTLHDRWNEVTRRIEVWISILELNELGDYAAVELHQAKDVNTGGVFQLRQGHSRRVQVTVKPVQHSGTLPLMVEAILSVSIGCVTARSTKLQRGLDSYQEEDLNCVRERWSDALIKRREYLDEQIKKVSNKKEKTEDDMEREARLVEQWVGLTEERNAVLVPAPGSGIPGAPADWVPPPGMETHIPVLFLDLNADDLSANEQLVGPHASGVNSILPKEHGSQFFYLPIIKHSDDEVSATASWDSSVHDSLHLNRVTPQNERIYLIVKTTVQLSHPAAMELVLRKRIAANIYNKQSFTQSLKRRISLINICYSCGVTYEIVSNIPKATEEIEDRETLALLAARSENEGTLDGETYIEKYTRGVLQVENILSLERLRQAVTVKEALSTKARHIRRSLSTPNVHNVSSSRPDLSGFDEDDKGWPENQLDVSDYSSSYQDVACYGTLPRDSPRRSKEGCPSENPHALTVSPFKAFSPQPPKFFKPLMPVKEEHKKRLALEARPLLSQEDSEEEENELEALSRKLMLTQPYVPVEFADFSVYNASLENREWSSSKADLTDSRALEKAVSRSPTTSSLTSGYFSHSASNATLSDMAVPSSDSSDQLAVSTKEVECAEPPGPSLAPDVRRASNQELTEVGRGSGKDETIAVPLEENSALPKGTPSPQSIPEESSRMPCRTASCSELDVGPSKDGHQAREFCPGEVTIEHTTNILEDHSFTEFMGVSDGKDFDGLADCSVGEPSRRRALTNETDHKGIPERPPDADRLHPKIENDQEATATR
UniProt B1AVY7: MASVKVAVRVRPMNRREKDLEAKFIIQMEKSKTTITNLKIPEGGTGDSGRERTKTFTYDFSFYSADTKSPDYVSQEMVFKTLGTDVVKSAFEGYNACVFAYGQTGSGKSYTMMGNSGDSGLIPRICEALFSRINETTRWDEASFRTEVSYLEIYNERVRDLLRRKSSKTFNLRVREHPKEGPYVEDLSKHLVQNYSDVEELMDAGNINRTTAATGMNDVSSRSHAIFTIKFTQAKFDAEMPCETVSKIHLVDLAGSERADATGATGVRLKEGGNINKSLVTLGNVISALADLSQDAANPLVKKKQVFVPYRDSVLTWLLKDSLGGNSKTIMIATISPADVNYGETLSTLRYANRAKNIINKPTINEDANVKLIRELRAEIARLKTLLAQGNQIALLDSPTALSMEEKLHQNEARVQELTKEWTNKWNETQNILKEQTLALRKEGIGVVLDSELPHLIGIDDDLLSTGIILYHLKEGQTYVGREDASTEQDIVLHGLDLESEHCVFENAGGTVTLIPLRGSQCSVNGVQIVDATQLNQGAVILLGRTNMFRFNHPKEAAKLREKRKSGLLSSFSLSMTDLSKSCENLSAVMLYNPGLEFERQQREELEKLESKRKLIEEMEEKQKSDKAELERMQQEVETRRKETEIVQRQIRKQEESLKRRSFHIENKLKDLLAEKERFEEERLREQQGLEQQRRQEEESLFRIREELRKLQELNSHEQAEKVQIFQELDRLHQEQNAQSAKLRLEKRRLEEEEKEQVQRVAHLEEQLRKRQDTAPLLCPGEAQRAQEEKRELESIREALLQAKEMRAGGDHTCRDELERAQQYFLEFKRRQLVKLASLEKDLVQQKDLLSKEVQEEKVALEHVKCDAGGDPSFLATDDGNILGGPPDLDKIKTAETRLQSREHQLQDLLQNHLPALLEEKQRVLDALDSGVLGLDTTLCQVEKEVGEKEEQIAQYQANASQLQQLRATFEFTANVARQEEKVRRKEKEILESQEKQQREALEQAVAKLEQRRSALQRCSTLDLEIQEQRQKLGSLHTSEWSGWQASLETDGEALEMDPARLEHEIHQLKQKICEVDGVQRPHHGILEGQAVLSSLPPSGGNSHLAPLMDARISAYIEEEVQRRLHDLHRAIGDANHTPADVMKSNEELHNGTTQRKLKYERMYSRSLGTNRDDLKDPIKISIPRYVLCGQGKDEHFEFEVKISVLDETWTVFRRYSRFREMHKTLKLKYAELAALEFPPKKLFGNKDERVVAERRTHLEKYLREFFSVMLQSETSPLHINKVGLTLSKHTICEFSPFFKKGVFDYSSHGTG

T1: KIF3B-FLAG (mouse) (UniProt Q61771)
T1 sequence: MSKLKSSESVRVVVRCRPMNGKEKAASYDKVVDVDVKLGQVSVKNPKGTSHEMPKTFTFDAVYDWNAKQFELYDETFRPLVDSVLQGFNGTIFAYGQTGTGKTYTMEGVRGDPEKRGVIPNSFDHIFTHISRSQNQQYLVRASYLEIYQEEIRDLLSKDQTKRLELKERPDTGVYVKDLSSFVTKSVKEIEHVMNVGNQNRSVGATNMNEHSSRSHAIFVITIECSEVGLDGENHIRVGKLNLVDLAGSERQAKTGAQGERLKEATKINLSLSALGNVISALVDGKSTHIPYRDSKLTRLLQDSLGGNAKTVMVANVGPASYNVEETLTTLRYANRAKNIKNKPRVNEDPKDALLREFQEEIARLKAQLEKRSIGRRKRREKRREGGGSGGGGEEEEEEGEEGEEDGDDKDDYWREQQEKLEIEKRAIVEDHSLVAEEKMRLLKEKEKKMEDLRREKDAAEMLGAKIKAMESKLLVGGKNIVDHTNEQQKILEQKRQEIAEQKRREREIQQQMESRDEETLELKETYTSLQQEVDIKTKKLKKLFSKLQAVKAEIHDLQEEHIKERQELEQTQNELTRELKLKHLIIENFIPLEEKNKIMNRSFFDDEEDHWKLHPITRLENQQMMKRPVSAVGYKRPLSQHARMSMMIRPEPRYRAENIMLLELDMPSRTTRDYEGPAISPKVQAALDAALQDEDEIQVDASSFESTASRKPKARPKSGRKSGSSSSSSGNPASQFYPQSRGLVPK

B1: BLOS1-Myc (protein, UniProt O55102 1-125)
chain: MLSRLLKEHQAKQNERKELQEKRRREAIAAATCLTEALVDHLNVGVAQAYMNQRKLDHEVKTLQVQAAQFAKQTGQWIGMVENFNQALKEIGDVENWARSIELDMRTIATALEYVYKGQLQSAPS
B2: BLOS1-HA (protein, UniProt O55102 1-125)
chain: B1 chain

Tests used:
[1] = target: GST-CD (cytoplasmic domain of LDLR fused to GST) (mouse) (UniProt P35951); assay: pull-down; GST-CD as bait, BLOS1-Myc in HEK293T cell lysate; immunoblotting; only the target purified
KIF13A-FLAG (mouse) = KIF13A-FLAG (mouse) (UniProt Q9EQW7); assay: co-IP; HEK293T cells co-transfected for 48 to 72 hr; whole cell lysate (50 mM Tris-HCl pH 7.0, 150 mM NaCl, 1 mM EDTA, 1% Triton X-100) incubated with anti-FLAG M2 agarose beads overnight at 4°C, no cross-linking; immunoblotting
KIF3B-FLAG (mouse) = target: T1, KIF3B-FLAG (mouse); assay: as above
KIF16B-FLAG (mouse) = KIF16B-FLAG (mouse) (UniProt B1AVY7); assay: as above

Row | Binder | binding [1] | binding (KIF13A-FLAG (mouse)) | binding (KIF3B-FLAG (mouse)) | binding (KIF16B-FLAG (mouse))
1 | B1 | binds | – | – | –
2 | B2 | – | binds | binds | no binding
